Paper PMC7730238, “Temporin-Like Peptides Show Antimicrobial and Anti-Biofilm Activities against Streptococcus mutans with Reduced Hemolysis” (Molecules, 2020)
No end group written: not given here.

Tested on: Human red blood cells (hRBCs)
Type: cell-based
Settings: ratio of HL50 to the MIC of the peptides against S. mutans
Method: The hemolytic toxicity of the peptides was determined as described. Human red blood cells (hRBCs) were washed with phosphate-buffered saline (PBS, pH 7.2) and centrifuged at 1000× g for 10 min at 4 °C until the supernatant was clear. 4% hRBCs and an equal volume of the peptides with different concentrations were incubated at 37 °C for 1 h. After incubation, the supernatant was collected by centrifugation, and 150 μL was transferred to a new 96-well plate (Corning, New York, NY, USA). The absorbance at 450 nm was measured. The 0.1% Triton X-100 was used as the positive control, and PBS was used as the negative control. The minimum hemolysis concentration (MHC) was defined as the lowest concentration of peptide that causes 10% hemolysis, and HL50 was the lowest concentration that causes 50% hemolysis. CSI was defined as the ratio of HL50 to MIC [31].

| Sequence | CSI (cell selectivity index) |
| --- | --- |
| FLQRIIGRLGRLF [GHaR8R] | 27 |
| FLQRIIRALGRLF [GHaR7R] | 1.8 |
| FLQRIRGALGRLF [GHaR6R] | > 16 |
